Data reported in article PMC8628943.
These are yes or no findings as the source states them, for the method shown. Some results given as binding are weak or reduced against the parent protein; the word gives no strength.

Target: T1, human fibrinogen gamma subunit (human), P02679
T1 chain: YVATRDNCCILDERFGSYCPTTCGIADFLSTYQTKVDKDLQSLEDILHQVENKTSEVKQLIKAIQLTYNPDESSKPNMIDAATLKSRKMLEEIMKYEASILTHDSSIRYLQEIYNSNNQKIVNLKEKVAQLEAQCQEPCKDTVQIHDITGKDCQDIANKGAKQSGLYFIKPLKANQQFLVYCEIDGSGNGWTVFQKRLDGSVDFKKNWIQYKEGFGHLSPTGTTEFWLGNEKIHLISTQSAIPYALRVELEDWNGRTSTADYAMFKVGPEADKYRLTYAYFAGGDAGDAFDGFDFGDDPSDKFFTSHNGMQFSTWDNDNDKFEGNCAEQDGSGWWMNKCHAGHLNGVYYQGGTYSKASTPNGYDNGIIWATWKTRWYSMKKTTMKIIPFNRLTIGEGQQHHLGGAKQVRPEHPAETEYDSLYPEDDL
Test: cross-linking; enzymatic cross-linking: human fibrinogen 4 mg/mL with human Factor XIIIa 100 µg/mL in 0.05 M Tris-HCl, 10 mM CaCl2, pH 7.6, 37 °C, up to 110 min; reducing SDS-PAGE; dimer band digested in gel, LC-MS/MS (CID 30), MassMatrix search; both purified
Settings: remark: other sources report otherwise

B1: human fibrinogen gamma subunit, P02679 27-453 (protein)
chain: YVATRDNCCILDERFGSYCPTTCGIADFLSTYQTKVDKDLQSLEDILHQVENKTSEVKQLIKAIQLTYNPDESSKPNMIDAATLKSRKMLEEIMKYEASILTHDSSIRYLQEIYNSNNQKIVNLKEKVAQLEAQCQEPCKDTVQIHDITGKDCQDIANKGAKQSGLYFIKPLKANQQFLVYCEIDGSGNGWTVFQKRLDGSVDFKKNWIQYKEGFGHLSPTGTTEFWLGNEKIHLISTQSAIPYALRVELEDWNGRTSTADYAMFKVGPEADKYRLTYAYFAGGDAGDAFDGFDFGDDPSDKFFTSHNGMQFSTWDNDNDKFEGNCAEQDGSGWWMNKCHAGHLNGVYYQGGTYSKASTPNGYDNGIIWATWKTRWYSMKKTTMKIIPFNRLTIGEGQQHHLGGAKQVRPEHPAETEYDSLYPEDDL
binding: binds
